Experimental findings from PMC5427921, “PRL3 phosphatase active site is required for binding the putative magnesium transporter CNNM3” (Scientific Reports, 2017) are described below.

The chains behind the UniProt entries cited, without tags or fusion partners. Where a name states a change or a piece, a line headed by the entry shows the natural chain unless it says otherwise. A line that says so, or that is headed by a name, gives the form on record, which may keep a tag or linker. Residues count along the entry.
UniProt Q8NE01, residues 309-452: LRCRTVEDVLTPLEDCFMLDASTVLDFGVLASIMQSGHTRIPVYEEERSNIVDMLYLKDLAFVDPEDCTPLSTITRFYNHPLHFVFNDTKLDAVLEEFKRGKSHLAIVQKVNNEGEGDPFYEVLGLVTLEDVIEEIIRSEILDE
PRL3 R138E (O75365, form named): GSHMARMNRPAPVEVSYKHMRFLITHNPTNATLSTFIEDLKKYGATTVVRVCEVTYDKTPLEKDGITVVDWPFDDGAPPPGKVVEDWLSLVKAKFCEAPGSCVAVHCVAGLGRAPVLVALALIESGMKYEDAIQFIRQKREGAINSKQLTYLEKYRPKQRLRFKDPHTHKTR
PRL3 with Arg138 mutated to alanine (O75365, form named): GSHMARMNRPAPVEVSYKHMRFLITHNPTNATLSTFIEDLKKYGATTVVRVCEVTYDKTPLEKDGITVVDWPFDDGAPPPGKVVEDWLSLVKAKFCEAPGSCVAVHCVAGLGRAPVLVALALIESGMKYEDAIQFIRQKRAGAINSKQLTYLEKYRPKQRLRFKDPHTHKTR
PRL3 A111S (O75365, form named): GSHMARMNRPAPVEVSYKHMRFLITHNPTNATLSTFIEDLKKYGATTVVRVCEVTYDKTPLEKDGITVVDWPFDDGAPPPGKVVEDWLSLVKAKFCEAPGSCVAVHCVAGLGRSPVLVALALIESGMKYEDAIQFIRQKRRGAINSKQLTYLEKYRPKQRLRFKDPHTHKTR
PRL3 D72A (O75365, form named): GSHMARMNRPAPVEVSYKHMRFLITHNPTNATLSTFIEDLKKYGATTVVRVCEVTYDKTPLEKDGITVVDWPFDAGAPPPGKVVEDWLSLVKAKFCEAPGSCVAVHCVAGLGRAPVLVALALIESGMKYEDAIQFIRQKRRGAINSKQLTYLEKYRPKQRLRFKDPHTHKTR
PRL3 with the catalytic cysteine (Cys104) mutated to glutamic acid (O75365, form named): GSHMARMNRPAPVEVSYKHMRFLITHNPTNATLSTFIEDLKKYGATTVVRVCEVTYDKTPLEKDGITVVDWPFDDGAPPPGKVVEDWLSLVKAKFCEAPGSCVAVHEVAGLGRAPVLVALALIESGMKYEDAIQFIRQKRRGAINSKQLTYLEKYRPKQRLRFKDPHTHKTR
PRL3 C104A (O75365, form named): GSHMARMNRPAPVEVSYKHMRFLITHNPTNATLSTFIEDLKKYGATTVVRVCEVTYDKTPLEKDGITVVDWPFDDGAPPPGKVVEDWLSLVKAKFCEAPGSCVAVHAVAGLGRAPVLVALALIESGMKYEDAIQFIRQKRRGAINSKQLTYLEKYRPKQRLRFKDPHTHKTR

The target of experiment [1] is CNNM3 CBS-pair domain as a GST fusion (human) (UniProt Q8NE01). The experiment is described as follows: ITC; syringe 160 μM PRL2 or PRL3, cell 16 μM CNNM3 CBS-pair domain as a GST fusion; 22 °C; 30 injections of 10 μl; fitted to a single set of identical sites; both purified.
Experiment [2] deals with CBS-pair domain of human CNNM3 (GST tag removed) (human) (UniProt Q8NE01). As to the kind of experiment: crystal structure; PRL3 C104A•CNNM3 CBS-pair domain; 1:1 mixture (1 mg/ml), hanging drops, 293 K; 20 mM HEPES pH 7.0, 100 mM NaCl, 5 mM TCEP over 0.064 M sodium citrate, 15% PEG5000 MME, 0.1 M HEPES pH 7.0; both purified.

These are yes or no findings as the source states them, for the method shown. Some results given as binding are weak or reduced against the parent protein; the word gives no strength.

As for “PRL3 R138E (from UniProt O75365 1-169) (enzyme)”, the binding entry in experiment [1] was “binds weakly”.
For the substance “PRL3 with Arg138 mutated to alanine (from UniProt O75365 1-169) (enzyme)”, the binding entry in experiment [1] was “binds”.
Still for that read-out and setting: the entry for “PRL3 A111S (from UniProt O75365 1-169) (enzyme)” is “binds”; for “PRL3 D72A (from UniProt O75365 1-169) (enzyme)” it is “binds”; for “PRL3 with the catalytic cysteine (Cys104) mutated to glutamic acid (from UniProt O75365 1-169) (enzyme)” it is “binds weakly”.
For the substance “PRL3 C104A (from UniProt O75365 1-169) (enzyme)”, the binding entry in experiment [2] is listed as “binds”.
